From PMC5089992
Results are given in words; binding and its absence hold for the method and conditions named. Binding seen in cells or lysates may run through a third protein. Some binding calls cover weakened binding; strength is not graded here.

By UniProt entry, the sequences of proteins in these tests, tags left out. Where a name states a change or a piece, a line headed by the entry shows the natural chain unless it says otherwise. Residues count along the entry.
UniProt Q13464: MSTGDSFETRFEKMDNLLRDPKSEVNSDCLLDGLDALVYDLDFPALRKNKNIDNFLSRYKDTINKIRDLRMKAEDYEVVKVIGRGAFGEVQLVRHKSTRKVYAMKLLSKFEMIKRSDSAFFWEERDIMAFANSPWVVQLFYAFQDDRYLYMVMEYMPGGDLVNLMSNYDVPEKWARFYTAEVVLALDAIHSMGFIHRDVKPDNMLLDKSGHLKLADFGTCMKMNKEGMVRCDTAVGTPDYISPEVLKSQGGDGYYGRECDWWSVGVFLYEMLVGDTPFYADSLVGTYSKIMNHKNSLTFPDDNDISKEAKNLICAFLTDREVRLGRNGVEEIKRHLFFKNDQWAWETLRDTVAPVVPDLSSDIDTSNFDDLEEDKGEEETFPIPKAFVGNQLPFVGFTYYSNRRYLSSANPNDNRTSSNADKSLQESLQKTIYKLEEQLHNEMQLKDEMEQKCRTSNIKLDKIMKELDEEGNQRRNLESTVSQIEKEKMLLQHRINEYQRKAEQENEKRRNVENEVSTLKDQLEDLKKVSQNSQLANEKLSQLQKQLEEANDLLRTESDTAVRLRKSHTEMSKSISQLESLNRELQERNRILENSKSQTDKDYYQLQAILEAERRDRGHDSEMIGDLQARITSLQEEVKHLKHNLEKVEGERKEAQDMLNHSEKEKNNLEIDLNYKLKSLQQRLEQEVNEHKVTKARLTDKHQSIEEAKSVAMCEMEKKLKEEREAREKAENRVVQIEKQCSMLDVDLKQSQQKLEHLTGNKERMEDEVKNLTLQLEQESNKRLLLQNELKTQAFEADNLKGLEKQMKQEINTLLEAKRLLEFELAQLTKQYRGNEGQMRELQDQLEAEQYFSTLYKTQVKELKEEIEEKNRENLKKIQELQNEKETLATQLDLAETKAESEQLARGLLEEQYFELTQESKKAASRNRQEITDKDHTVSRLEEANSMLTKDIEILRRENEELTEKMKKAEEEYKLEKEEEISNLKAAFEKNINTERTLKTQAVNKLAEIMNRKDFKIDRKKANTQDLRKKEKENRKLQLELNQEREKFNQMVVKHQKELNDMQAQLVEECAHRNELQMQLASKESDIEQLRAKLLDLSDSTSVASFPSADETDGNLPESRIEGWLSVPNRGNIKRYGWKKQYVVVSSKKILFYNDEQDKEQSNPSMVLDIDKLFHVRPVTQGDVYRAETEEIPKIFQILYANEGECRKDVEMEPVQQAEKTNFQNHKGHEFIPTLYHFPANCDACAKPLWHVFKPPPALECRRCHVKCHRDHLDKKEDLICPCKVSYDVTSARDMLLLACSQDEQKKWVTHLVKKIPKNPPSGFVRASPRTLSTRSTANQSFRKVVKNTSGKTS
constitutively active ROCK1 fragment (pCAG-myc-ROCK1^myc-727 Δ3, ROCK1 CA): residues 1-727 of Q13464
UniProt Q14457: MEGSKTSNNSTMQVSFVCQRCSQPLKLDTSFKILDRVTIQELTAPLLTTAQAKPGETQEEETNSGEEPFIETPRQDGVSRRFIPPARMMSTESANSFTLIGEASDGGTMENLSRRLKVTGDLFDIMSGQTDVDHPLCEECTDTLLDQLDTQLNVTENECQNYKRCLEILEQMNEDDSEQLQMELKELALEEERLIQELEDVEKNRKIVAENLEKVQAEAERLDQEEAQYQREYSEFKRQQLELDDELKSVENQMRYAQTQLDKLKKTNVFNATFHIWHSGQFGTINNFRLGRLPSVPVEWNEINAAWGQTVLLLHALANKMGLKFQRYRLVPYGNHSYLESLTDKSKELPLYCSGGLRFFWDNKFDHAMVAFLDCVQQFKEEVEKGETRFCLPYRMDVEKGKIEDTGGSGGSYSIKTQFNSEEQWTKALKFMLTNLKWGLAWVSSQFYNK

Legend:
[1] = molecular target: Rho-associated coiled-coil kinase 1 (ROCK1), endogenous (human (endogenous in HEK293T)) (UniProt Q13464); test: co-IP; HEK293(T) cells transfected with ROCK1 CA plasmid or pcDNA, lysed 48 h later in 1% RIPA lysis buffer; precipitation with anti-ROCK1 and anti-myc antibody (legend: ROCK1 crosslinked agarose), protein A + G agarose beads 4 h at 4°C, four washes with lysis buffer; western blot for anti-Myc and anti-Beclin1
[2] = molecular target: constitutively active ROCK1 fragment (pCAG-myc-ROCK1^myc-727 Δ3, ROCK1 CA) (human) (UniProt Q13464); test: as above

- binding [1]: binds
- binding [2]: binds
Substance: Beclin1, endogenous (from UniProt Q14457 1-450)
